# Measured values: paper doi:10.1101/2021.12.02.470903
# By UniProt entry, the sequences of proteins in these tests, tags left out.
# UniProt Q0WLB5: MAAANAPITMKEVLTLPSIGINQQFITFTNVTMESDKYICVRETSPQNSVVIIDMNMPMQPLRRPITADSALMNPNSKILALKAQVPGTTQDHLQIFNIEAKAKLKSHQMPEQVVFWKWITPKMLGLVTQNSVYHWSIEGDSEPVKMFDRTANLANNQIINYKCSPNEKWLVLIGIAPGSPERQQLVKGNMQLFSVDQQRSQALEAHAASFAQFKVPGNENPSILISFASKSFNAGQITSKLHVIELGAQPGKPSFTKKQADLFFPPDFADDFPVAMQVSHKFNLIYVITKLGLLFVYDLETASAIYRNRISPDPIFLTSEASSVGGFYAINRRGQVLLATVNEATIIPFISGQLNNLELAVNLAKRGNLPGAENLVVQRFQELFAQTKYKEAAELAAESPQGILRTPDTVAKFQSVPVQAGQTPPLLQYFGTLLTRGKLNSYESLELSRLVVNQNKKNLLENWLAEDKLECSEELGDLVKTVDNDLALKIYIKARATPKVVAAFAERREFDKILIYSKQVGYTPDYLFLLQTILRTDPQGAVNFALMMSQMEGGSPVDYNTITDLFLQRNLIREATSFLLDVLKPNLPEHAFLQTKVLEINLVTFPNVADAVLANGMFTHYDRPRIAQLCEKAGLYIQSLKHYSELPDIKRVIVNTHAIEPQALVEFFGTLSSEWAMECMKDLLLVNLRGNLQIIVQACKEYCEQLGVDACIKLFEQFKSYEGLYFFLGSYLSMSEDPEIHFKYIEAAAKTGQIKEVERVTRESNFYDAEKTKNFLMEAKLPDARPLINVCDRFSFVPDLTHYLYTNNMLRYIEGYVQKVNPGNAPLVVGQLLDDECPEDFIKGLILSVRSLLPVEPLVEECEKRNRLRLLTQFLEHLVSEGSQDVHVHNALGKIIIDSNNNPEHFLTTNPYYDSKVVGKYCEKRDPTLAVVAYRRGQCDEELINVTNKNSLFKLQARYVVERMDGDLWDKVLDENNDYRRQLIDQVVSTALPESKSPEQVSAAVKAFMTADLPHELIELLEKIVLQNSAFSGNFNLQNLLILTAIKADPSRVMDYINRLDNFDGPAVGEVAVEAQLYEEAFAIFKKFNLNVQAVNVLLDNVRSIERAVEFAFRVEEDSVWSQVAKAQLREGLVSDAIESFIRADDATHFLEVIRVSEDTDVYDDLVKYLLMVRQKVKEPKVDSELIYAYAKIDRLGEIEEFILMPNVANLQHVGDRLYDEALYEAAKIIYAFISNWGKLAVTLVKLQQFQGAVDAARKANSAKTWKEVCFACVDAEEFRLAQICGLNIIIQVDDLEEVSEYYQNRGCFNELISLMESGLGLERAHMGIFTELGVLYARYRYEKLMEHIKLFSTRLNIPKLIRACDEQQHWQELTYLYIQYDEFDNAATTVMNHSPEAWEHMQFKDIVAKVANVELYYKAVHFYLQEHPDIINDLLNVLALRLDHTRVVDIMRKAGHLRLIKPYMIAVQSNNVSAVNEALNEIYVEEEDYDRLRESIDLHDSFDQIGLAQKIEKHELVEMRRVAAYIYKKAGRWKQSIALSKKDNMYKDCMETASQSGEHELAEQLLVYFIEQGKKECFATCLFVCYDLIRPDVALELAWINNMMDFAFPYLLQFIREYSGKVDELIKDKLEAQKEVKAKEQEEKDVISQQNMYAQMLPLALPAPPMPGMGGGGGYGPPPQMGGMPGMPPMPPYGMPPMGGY
# No constants are given. Whether binding was seen depends on the method and setting. Binding seen in cells or lysates may run through a third protein. These calls come from enrichment with a bait or labelling near it, and not all partners need be listed. Where a sequence is shown, tags or fusion partners need not be part of it.
# Target: T1, CV-HA (CHLOROPLAST VESICULATION with HA tag, DEX-inducible, transgenic DEX-CV-HA plants) (Arabidopsis thaliana) (UniProt Q8S8K8)
# T1 sequence: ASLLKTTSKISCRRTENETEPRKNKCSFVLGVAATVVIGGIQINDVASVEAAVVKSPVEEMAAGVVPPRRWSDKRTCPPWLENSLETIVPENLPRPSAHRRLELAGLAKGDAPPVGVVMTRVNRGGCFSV
# Assay: affinity purification with mass spectrometry
row,binding,Substance
1,binds,"Clathrin heavy chain 2 (CHC2), endogenous (from UniProt Q0WLB5 1-1703)"
2,binds,"…-3-PHOSPHATE DEHYDROGENASE GAPC1, endogenous (from UniProt P25858 1-338) (enzyme)"
